Measurements taken from PubChem BioAssay AID540275 (National Center for Advancing Translational Sciences (NCATS), 2011).
Among all 320,000 compounds or so, about 620 (0.19%) were called active. Inconclusive means that the source gave no clear call. Such entries were picked first, then a sample of the others. Rule as the data show it: active = activation above about 80%; inconclusive = between about 30% and that limit; inactive = weaker than that.

Sequences of proteins named here, by UniProt entry; tags and fusion partners are left off.
UniProt Q8NER1, whole entry, looked up: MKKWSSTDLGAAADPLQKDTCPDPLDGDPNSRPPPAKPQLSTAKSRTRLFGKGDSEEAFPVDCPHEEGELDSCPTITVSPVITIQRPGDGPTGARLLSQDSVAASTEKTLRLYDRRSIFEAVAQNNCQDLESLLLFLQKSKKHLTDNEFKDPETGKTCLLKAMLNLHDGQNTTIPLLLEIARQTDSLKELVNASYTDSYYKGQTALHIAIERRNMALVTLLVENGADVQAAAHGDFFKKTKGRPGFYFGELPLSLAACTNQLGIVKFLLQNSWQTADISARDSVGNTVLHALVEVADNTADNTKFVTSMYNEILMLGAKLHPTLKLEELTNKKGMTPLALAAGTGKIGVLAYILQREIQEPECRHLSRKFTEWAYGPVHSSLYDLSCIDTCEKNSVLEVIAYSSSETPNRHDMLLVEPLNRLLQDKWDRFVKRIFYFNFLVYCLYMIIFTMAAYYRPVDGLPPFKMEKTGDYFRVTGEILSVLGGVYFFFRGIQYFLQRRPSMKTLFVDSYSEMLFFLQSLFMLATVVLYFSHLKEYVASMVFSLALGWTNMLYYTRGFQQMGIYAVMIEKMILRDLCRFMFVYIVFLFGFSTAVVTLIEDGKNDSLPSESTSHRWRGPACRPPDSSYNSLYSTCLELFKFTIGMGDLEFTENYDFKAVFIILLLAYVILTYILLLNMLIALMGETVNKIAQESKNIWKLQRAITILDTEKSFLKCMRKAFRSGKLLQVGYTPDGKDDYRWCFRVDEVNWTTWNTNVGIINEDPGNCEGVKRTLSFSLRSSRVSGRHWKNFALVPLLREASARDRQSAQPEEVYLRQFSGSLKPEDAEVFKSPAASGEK

Target: Transient receptor potential cation channel subfamily V member 1 (Homo sapiens) (UniProt Q8NER1)
Experiment: HTS Assay for Compounds that Act as Agonists of the Vanilloid Receptor 1; also: 0% is about no effect
Conditions: TRPV1-expressing cells, Fluo-8 calcium influx, agonist mode; at 8.33 µM, active compounds read high
In short: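 Cells expressing TRPV1 were dye-loaded with Fluo-8 and read kinetically: 10 s baseline, 3 min after compound (agonist portion), then 2 min after EC20 capsaicin (allosteric enhancer portion). Calcium-bound dye fluorescence at 480/520 nm.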

| Structure (SMILES) | activation |
| --- | --- |
| Cc1cccc(NC(=O)c2ccc(S(=O)(=O)N3CCOCC3)cc2)c1C | inconclusive: 63.9% |
| Cc1ccc(C2CC(c3cccs3)=NN2C(=O)CCl)cc1 (centres undefined) | inactive: -4.09% |
| CC1=CC2=NC(=O)/C(=C\c3cccn3CCOc3ccc(C)c(C)c3)C(=N)N2O1 | inactive: 11% |
| CC(C)(C)C1CCc2c(sc(NC(=O)c3cccs3)c2C(=O)N2CCCCC2)C1 (centres undefined) | inconclusive: 34.5% |
| O=C(c1ccc(F)cc1)C1CCN(C(=O)NC2CCCCC2)CC1 | inconclusive: 37.2% |
| O=C1CCc2cc(S(=O)(=O)N3CCN(c4cccc(C(F)(F)F)c4)CC3)ccc2N1 | inconclusive: 50.9% |
| O=C(COc1ccc2ccccc2c1)N1CCN(C(=O)c2ccco2)CC1 | inactive: 6.39% |
| CC(=O)c1c(C)[nH]c(C(=O)CSc2nnc(-c3ccc(Cl)cc3)n2CC2CCCO2)c1C (centres undefined) | inconclusive: 35.8% |
| Cc1oc(-c2ccc(Cl)cc2)nc1CN1CCCC(C(=O)NC2CC2)C1 (centres undefined) | inactive: 8% |
| C/C(=N\NC(=S)NCc1ccccc1)c1ccco1 | inactive: 16.8% |
| O=C(OCn1ncc(Cl)c(Cl)c1=O)c1ccc(C(F)(F)F)cc1 | inactive: 10.8% |
| CN1C[C@@H]2C(c3ccc(C(F)(F)F)cc3)C3(c4ccc(C#N)cc4)CC2(C3)[C@H]1c1ccccc1 (some centres undefined) | inactive: -0.821% |
| O=C(CCCl)N1CCN(c2nc(-c3ccccc3)cs2)CC1 | inconclusive: 31% |
| O=C(COC(=O)c1ccc(S(=O)(=O)NCc2ccco2)cc1)Nc1ccccc1OC(F)F | inactive: 1.33% |
| COCCCN1C(=O)/C(=C\c2ccc3c(c2)OCO3)C(C(=O)OC)=C1C | inconclusive: 35.3% |
| CCNC(=O)/C(C#N)=C/c1c(N2CCCCCC2)nc2c(C)cccn2c1=O | inactive: 24.5% |
| CN1C(=O)CC(C(=O)Nc2ccc(F)cc2)SC1=Nc1ccc2c(c1)OCO2 (centres undefined) | inconclusive: 35.1% |
| COc1cc2[nH]c(C(=O)Nc3ccc(F)cc3)cc2c(OC)c1OC | active: 86.1% |
| O=C(Nc1ccccc1Cl)Nc1ccccc1Cl | inconclusive: 55% |
| CN1/C(=C\C(=O)CSc2nnc(NCc3ccccc3)s2)C(C)(C)c2ccccc21 | inactive: 0.0248% |
| CCOC(=O)c1nn(-c2ccc(Cl)cc2)c2nnc(Cc3ccccc3)c(=O)n12 | inconclusive: 40.7% |
| COc1ccc(-c2noc(N3CCC(C(=O)Nc4ccc(OC)c(OC)c4)CC3)n2)cc1 | inconclusive: 32.6% |
| CCNC(=O)/C(C#N)=C/c1c(N(Cc2ccccc2)Cc2ccccc2)nc2ccccn2c1=O | inconclusive: 38.9% |

Retrieved one by one from above (4):

| Structure (SMILES) | activation |
| --- | --- |
| COCCCN1C(=O)/C(=C\c2ccc3c(c2)OCO3)C(C(=O)OC)=C1C | inconclusive: 35.3% |
| O=C(OCn1ncc(Cl)c(Cl)c1=O)c1ccc(C(F)(F)F)cc1 | inactive: 10.8% |
| O=C1CCc2cc(S(=O)(=O)N3CCN(c4cccc(C(F)(F)F)c4)CC3)ccc2N1 | inconclusive: 50.9% |
| COc1cc2[nH]c(C(=O)Nc3ccc(F)cc3)cc2c(OC)c1OC | active: 86.1% |

In another format: two of the compounds above
Structure (SMILES)	activation
CC1=CC2=NC(=O)/C(=C\c3cccn3CCOc3ccc(C)c(C)c3)C(=N)N2O1	inactive: 11%
O=C(OCn1ncc(Cl)c(Cl)c1=O)c1ccc(C(F)(F)F)cc1	inactive: 10.8%

Following part

| Structure (SMILES) | activation |
| --- | --- |
| Cc1cc(S(=O)(=O)N2CCN(c3ccc(F)cc3)CC2)ccc1-n1cnnn1 | inconclusive: 48.8% |
| NS(=O)(=O)c1ccc(CNC(=O)CCCSc2ccccc2)cc1 | active: 84.1% |
| Cc1ccc(/C=N/Nc2nnc(Cl)c3ccccc23)cc1 | inactive: 0.514% |
| Cc1ccc(-c2c(C(=O)N/N=C/c3ccc4c(c3)OCO4)nnn2-c2nonc2N)cc1 | inactive: -4.37% |
| CC(=O)Nc1nc(C)c(-c2csc(Nc3ccc(O)cc3)n2)s1 | inactive: -2.94% |
| Cc1occc1-c1nnc(SCC(=O)N2CCCC(C)C2)o1 (centres undefined) | inconclusive: 31.3% |
| O=c1ccsn1Cc1ccccc1 | inactive: 24.1% |
| COC(=O)c1cccc(NC(=S)NCc2ccco2)c1 | inconclusive: 30.9% |
| COc1ccc(NC(=O)c2cc(S(=O)(=O)N(Cc3ccccc3)c3ccccc3)ccc2Cl)cn1 | inconclusive: 41.6% |
| Cc1c([N+](=O)[O-])cc(C(=O)Nc2ccc(Cc3ccncc3)cc2)cc1[N+](=O)[O-] | inconclusive: 44.1% |
| CCCN1C(=O)/C(=C/c2ccc3c(c2)OCO3)NC1=S | inconclusive: 36.5% |
| O=C(NCCc1ccc(Cl)cc1)c1ccc2nc[nH]c2c1 | inconclusive: 52.6% |
| O=C(Nc1ccccc1)c1ccc(S(=O)(=O)N2CCCCC2)cc1 | inconclusive: 60.5% |
| O=C(CSc1nc2ccccc2c(=O)n1Cc1ccco1)N1CCCCCC1 | inconclusive: 32% |
| Cc1nc(CNS(=O)(=O)c2cc(F)ccc2F)cs1 | inactive: -3.25% |
| CC(C)Oc1ccc2ccccc2c1C=O | inconclusive: 30.1% |
| CC(C)(OC(=O)c1ccc(F)cc1)c1cc2ccccc2c(=O)o1 | inconclusive: 30.8% |
| O=C(NC1CCCC1)C(c1ccc(F)cc1)N(Cc1ccc(Cl)cc1)C(=O)CCl (centres undefined) | inactive: 0.221% |
| O=C(Nc1ccc(N2CCCCCC2)cc1)c1ccccc1Cl | inconclusive: 68.3% |
| Cc1ccc(-c2onc(C)c2C)cc1S(=O)(=O)N1CC(C)Oc2ccccc21 (centres undefined) | inconclusive: 57.2% |
| Cc1cc(C(C#N)c2ccc(Cl)cc2)c(Cl)cc1NC(=O)c1cc(I)cc(I)c1O (centres undefined) | inactive: -0.588% |
| O=C(Nc1cccc(F)c1)C1CC(=O)N(c2ccc(Br)cc2)C1 (centres undefined) | inconclusive: 55.8% |
| CN1/C(=C\C=C2/SC(=S)N(CC(=O)O)C2=O)C(C)(C)c2ccccc21 | inconclusive: 39.8% |

Individual results from the results shown:
COCCCN1C(=O)/C(=C\c2ccc3c(c2)OCO3)C(C(=O)OC)=C1C – activation: inconclusive: 35.3%
COC(=O)c1cccc(NC(=S)NCc2ccco2)c1 – activation: inconclusive: 30.9%

Next part:

| Structure (SMILES) | activation |
| --- | --- |
| CCC(C)c1ccc(NC(=S)N2CCN(S(C)(=O)=O)CC2)cc1 (centres undefined) | inconclusive: 72.5% |
| CCOc1ccc2oc(C(=O)Nc3ccc4c(c3)OCO4)c(C)c2c1 | inconclusive: 41.8% |
| COc1ccc(N2CCC(CNC(=O)Nc3ccc(Cl)cc3)C2)cc1 (centres undefined) | inconclusive: 53.1% |
| COc1ccc2[nH]c3c(=S)nc[nH]c3c2c1 | inactive: -1.55% |
| O=C(COC(=O)c1ccccc1Nc1ccccc1)c1ccccc1 | inactive: 6.37% |
| CC(=O)Nc1ccc2c(c1)CCc1ccccc1-2 | inconclusive: 34.7% |
| COc1ccc(/C=C/c2onc(C)c2S(=O)(=O)N2CCC(C(=O)N3CCC(C)CC3)CC2)cc1 | inconclusive: 67.2% |
| COc1ccc(-c2nnc3sc(COc4ccc(C)cc4)nn23)cc1 | inconclusive: 33.4% |
| O=C(CCNS(=O)(=O)c1ccc(Br)cc1)N1CCCCCCC1 | inconclusive: 32.2% |
| CCCNC(=O)c1ccccc1NC(=O)COc1cccc2c1OC(C)(C)C2 | inconclusive: 54.1% |
| NC(=O)c1ccsc1NC(=O)COC(=O)/C=C/c1ccccc1 | inconclusive: 52.4% |
| CC(C)(C)C1CCC(C(=O)Nc2cccnc2)CC1 (centres undefined) | inconclusive: 59.4% |
| CCc1cccc2c(C(=O)COC(=O)c3ccc(O)cc3)c[nH]c12 | inconclusive: 41.3% |
| CCOC(=O)COc1nc2ccc(Br)cc2c(-c2ccccc2)c1C(C)=O | inconclusive: 41.2% |
| CCc1c(C(=O)Nc2cc(C)ccc2OC)[nH]c(C)c1C(C)=O | inconclusive: 46.4% |
| Cc1ccc2cc(CN(Cc3ccco3)C(=O)c3ccccc3)c(=O)[nH]c2c1C | inconclusive: 32.1% |
| Cc1cc(SCC(=O)c2cccs2)n2nc(C)c(-c3ccccc3)c2n1 | inactive: 20.9% |
| OC(COc1ccc(OCC(O)CN2CCCCC2)cc1)CN1CCCCC1 (centres undefined) | inactive: 0.154% |
| Cc1cc(=O)oc2c3c(cc(OCC(=O)NCc4ccccc4)c12)OC(C)(C)CC3 | inconclusive: 55.1% |
| COc1ccc(NC2=C(c3ccc(OC)cc3)C(=O)c3ccccc32)cc1 | inconclusive: 38.3% |
| CC(=O)N(C1=C(Cl)C(=O)c2ccccc2C1=O)C1CCCCC1 | inactive: 9.96% |
| O=C(c1cc(-c2ccccc2Cl)nc2ccccc12)N1CCC1 | inconclusive: 30.3% |
| O=C(Cn1cnc2c(nnn2Cc2ccccc2F)c1=O)OCc1ccccc1 | inconclusive: 41.5% |

| Structure (SMILES) | activation |
| --- | --- |
| Cn1cnc(C(=O)N2CCN(C(=O)OC(C)(C)C)CC2)c1C(=O)N1CCN(C(=O)OC(C)(C)C)CC1 | inactive: -5.52% |
| CCc1n[nH]c(=S)n1/N=C/c1ccc(N(C)c2ccccc2)cc1 | inconclusive: 33.4% |
| Cc1ccccc1OCCNC(=O)c1ccco1 | inconclusive: 40.4% |
| Cc1ccc2nc(NCCCO)nc(-c3ccccc3)c2c1 | inactive: 25% |
| COc1ccc(CNC(=O)CS(=O)(=O)Cc2nc(-c3ccc(OC)cc3)oc2C)cc1 | inconclusive: 39.2% |
| N=c1c(C(=O)NC2CCCCC2)cc2c(=O)n3ccccc3nc2n1Cc1ccc(F)cc1 | inactive: -3.95% |
| CC(CC(=O)N1CCN(c2ccccc2)CC1)c1ccccc1 (centres undefined) | inconclusive: 32.7% |
| CCNC(=O)/C(=C/c1cccc([N+](=O)[O-])c1)NC(=O)c1ccc(C)cc1 | inactive: -2.01% |
| Cc1cccc(NC(=O)c2ccc(OC3CSC3)cc2)c1 | inconclusive: 43.6% |
| COc1ccc(NC(=O)C2CCN(c3ncnc4c3nc3n4CCCCC3)CC2)cc1Cl | inconclusive: 41% |
| CCOc1ccc(Cl)cc1S(=O)(=O)n1cnc2ccccc21 | inconclusive: 49.8% |
| O=C(Nc1ccncc1)c1cccc(S(=O)(=O)N2CCN(c3ccc(F)cc3)CC2)c1 | inconclusive: 33.6% |
| O=C(NC(=S)Nc1nc2ccccc2s1)c1ccco1 | inactive: 15.3% |
| COC(=O)CC1COc2ccccc2N1C(=O)c1cccc(Cl)c1 (centres undefined) | inactive: -0.818% |
| COc1ccc(NC(=O)C2CC(c3cccc(Br)c3)=NO2)cc1OC (centres undefined) | inconclusive: 38.9% |
| COC(=O)c1[nH]c2cccc(OC)c2c1NC(=O)CN1CCOCC1 | inactive: -2.24% |
| CCOC(=O)c1sc(Nc2ccccc2Cl)nc1C | inconclusive: 42.8% |
| CC(Sc1ccc(Cl)cc1)C(=O)Nc1ccc(S(=O)(=O)N2CCOCC2)cc1 (centres undefined) | inactive: -0.0856% |
| O=C(COc1ccc(C(=O)c2ccccc2)cc1)NCC1CCCCC1 | inconclusive: 37.3% |
| CC(C)C[C@@H](CC#N)N1CCN(Cc2ccccc2)CCC1=O | inactive: -0.425% |
